Source: patent US20250332102A1, “ON-DEMAND RELEASE OF ANTIBIOTIC COMPOSITION AND METHOD FOR TREATING INFECTIONS” (Antinous Technology Company Limited, priority 2024, published 2025)
At least one structure is not confirmed: it was looked up by name or label, or the drawing left a doubt.

Assay: Thermal analysis (TG/DTG)
Assay type: physicochemical
Settings: temperature range of 180 to 250° C.

C[C@H]1COc2c(N3CCN(C)CC3)c(F)cc3c(=O)c(C(=O)O)cn1c23 [levofloxacin]
weight reduction (TG): 1.8%
